Literature values as cited in patent US20240075050A1, “Methods and Compositions for Treating Leucine Rich Repeat Kinase 2 (LRRK2)-Associated Disorder or Condition” (University of Connecticut, priority 2022, published 2024).
For at least one compound, name, drawing or mass did not settle the structure.

Conditions: stated as reason for intracranial delivery; cited from earlier work

Compound: NC(=O)c1ncn([C@@H]2O[C@H](CO)[C@@H](O)[C@H]2O)c1N [AICAr, 5-aminoimidazole-4-carboxamide riboside]
- permeability across the blood-brain barrier: low permeability
